From publication PMC7819943, “Rice protein-binding microarrays: a tool to detect cis-acting elements near promoter regions in rice”
The other results are listed elsewhere or left out.

Biological target: T1, OsSMF1 (Oryza sativa, UniProt Q6ZLB0 1-436)
T1 sequence: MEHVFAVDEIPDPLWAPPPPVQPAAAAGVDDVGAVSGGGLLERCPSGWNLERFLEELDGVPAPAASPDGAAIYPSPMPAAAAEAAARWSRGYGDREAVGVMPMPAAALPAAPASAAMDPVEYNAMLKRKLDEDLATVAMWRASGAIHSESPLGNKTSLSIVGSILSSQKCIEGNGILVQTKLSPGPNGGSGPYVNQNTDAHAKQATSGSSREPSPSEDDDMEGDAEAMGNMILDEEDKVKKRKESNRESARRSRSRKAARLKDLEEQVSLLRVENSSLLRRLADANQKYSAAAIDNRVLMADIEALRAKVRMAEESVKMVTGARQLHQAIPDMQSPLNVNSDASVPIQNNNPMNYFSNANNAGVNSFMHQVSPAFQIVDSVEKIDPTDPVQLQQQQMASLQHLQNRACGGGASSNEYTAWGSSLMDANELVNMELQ
Experiment: protein-binding microarray (RPBM); PBS, 2% BSA, 51.3 ng/ul salmon testes DNA, 50 uM zinc acetate, 200 nM TF, 25 C, 1 h; high values mean tight binding
Conditions: protein: recombinant; tags: N-terminal polyhistidine and DsRed monomer fusion (pET32a); chain copies: 2; label: CyDye5-dUTP incorporated in the synthesized complementary strand; 3' TTTTT single-stranded linker to array surface; dsDNA, one strand shown
Method in brief: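 A custom Agilent array was converted to double-stranded form by primer extension with Cy5-dUTP and blocked with 2% BSA. Protein at 200 nM in PBS with 2% BSA, salmon testes DNA and 50 µM zinc acetate was applied for 1 h at 25 °C, followed by washing. The proteins were polyhistidine–DsRed N-terminal fusions of transcription factors, expressed in E. coli BL21-CodonPlus and Ni–NTA-purified. The binding signal is per-feature fluorescence intensity (arbitrary units) from an Axon 4000B scanner.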

Sequence	binding signal
GTGGGGAAGAGGAGGCAGAGGACGCGATGCTGTTTTGATACGGAGTCACCTAGTGCAG	3210 fluorescence intensity (a.u.)
GCAACGCGACCATGTTCTCTCCCGCCACGGGGCCGCGCGCCGGAGTCACCTAGTGCAG	3220 fluorescence intensity (a.u.)
CAGTTGGCGATCGACGTACGTTTACCTCCTGACGCCATTGCGGAGTCACCTAGTGCAG	3160 fluorescence intensity (a.u.)
ATCTTCATTGGCCGGCGTGTGATCGTCGTCATACACTCGTCGGAGTCACCTAGTGCAG	4750 fluorescence intensity (a.u.)
CTTGCAGAAAGGAACAATGTTGTCATAAGAATGTTCAGTACGGAGTCACCTAGTGCAG	3360 fluorescence intensity (a.u.)
TTCTGATCCGGATCTCCCACGTCAAGATCAGACTATACCTCGGAGTCACCTAGTGCAG	3280 fluorescence intensity (a.u.)
CATTGAAATATGTCATATTAGTTATTTATGTTGTTCGTTTCGGAGTCACCTAGTGCAG	4020 fluorescence intensity (a.u.)
CCTGTGCCCATATCCTGTTGTTTCCAGTAGACATCCTTGGCGGAGTCACCTAGTGCAG	3160 fluorescence intensity (a.u.)
CGACCCAAAGGGATTGCATGCGTTGTCTGTGTCACCAGATCGGAGTCACCTAGTGCAG	5270 fluorescence intensity (a.u.)
TGGGGCCACGAGCGTGCCACGCCATCATCAAACACGTTTCCGGAGTCACCTAGTGCAG	7710 fluorescence intensity (a.u.)
ACGCGGTTCAGGACCGGCAGGTGGTGAACGCCATTGCCATCGGAGTCACCTAGTGCAG	3430 fluorescence intensity (a.u.)
TGCCTGTGTGTGTCACTCTTCTCATGATCTCATCACACCACGGAGTCACCTAGTGCAG	4130 fluorescence intensity (a.u.)
CGTGTCCTTCTGGCTCGTCCGTGACGACGATGACGACGACCGGAGTCACCTAGTGCAG	3580 fluorescence intensity (a.u.)
TCTGCTTACCCTTCACGACGGCCACCTGTCACCATCATAGCGGAGTCACCTAGTGCAG	4920 fluorescence intensity (a.u.)
TGGTACCAAGCTGACATGGATATTGTCGTTGCTGCTCATCCGGAGTCACCTAGTGCAG	4260 fluorescence intensity (a.u.)
GGAGAGCATAGCTTAGGATAACAGTACCAACCAGTTAACTCGGAGTCACCTAGTGCAG	3340 fluorescence intensity (a.u.)
ATTCTCCGGTCGCCACGACTGCTTCGTGAACAATCTGCATCGGAGTCACCTAGTGCAG	4730 fluorescence intensity (a.u.)
TGTTTTCTAATATTTACAATCAGATCCCTTGAGTGAGTCACGGAGTCACCTAGTGCAG	4150 fluorescence intensity (a.u.)
GTGAAGCCATCCAGCTGTGTGCCACGTCAAGATGAGTCCACGGAGTCACCTAGTGCAG	19900 fluorescence intensity (a.u.)
AGTACATTTTGCATGGACCATGTGAGGAGCCACGTATTCGCGGAGTCACCTAGTGCAG	8620 fluorescence intensity (a.u.)
CAGAAAATCCTCCTGCTCATGGCACAAATTGGGCTGCAGACGGAGTCACCTAGTGCAG	27100 fluorescence intensity (a.u.)
TCCGTATATCCGATGTGACACGTCAAAACTTTTCACCCCTCGGAGTCACCTAGTGCAG	13000 fluorescence intensity (a.u.)
TGAAACGACTCGTGTATATCTCTCCTCACCTTGGCGCGCCCGGAGTCACCTAGTGCAG	5570 fluorescence intensity (a.u.)
TTCTATAGTTCAGTTAGAGTGGGGATAGGAAAAGGAAAGGCGGAGTCACCTAGTGCAG	28500 fluorescence intensity (a.u.)
TATTAATCGTGGACTCTCTTTCCTTCCAGAATTTTAAGGACGGAGTCACCTAGTGCAG	3840 fluorescence intensity (a.u.)
TGTGTCTAACGTACGCCAGCGCTTATCGCCTGCTCCATCCCGGAGTCACCTAGTGCAG	3200 fluorescence intensity (a.u.)
GTCCTTGAATCTGACGTCGCCGGCTTGATGCGCGCTCCCTCGGAGTCACCTAGTGCAG	4890 fluorescence intensity (a.u.)

Sequence	binding signal
AAGAAGAAGAGTATGAAGCTGTGACGTGGAGGGCTGACCGCGGAGTCACCTAGTGCAG	24600 fluorescence intensity (a.u.)
AGCACAAGTCCACTGCGTGCGTGCGAGCGATGACTCCGATCGGAGTCACCTAGTGCAG	4240 fluorescence intensity (a.u.)
ACCGTGCGTGACAAATGATGCCAACATGTATGAAGCTCTGCGGAGTCACCTAGTGCAG	3920 fluorescence intensity (a.u.)
ACCCCAACCAACTGACGCAACGGCCCCACCTCCCTGTCCCCGGAGTCACCTAGTGCAG	5490 fluorescence intensity (a.u.)
AAGCAACACAGTTTTCTCCATGGCCCCATGGCGCCAATAACGGAGTCACCTAGTGCAG	3170 fluorescence intensity (a.u.)
AGGGCTCTGAAAATAAGTCCAAAGTAATGGTGGCATGATGCGGAGTCACCTAGTGCAG	4250 fluorescence intensity (a.u.)
TTTTAGTGTGACTGCATTCCTGGCGTCATCAGAAAATGAACGGAGTCACCTAGTGCAG	3750 fluorescence intensity (a.u.)
CGCCAGCGCCAGCGTCACCATCTTTCTTTTCCGATCACACCGGAGTCACCTAGTGCAG	4990 fluorescence intensity (a.u.)
ACCCCACGTACACCCCATGCTTCGTGACCGTGTGAGCTCTCGGAGTCACCTAGTGCAG	3340 fluorescence intensity (a.u.)
AGGTGGTGTTTGGTTGGAGGGGCTAAAGTGGGGCTAAACTCGGAGTCACCTAGTGCAG	5760 fluorescence intensity (a.u.)
CCACCCACCACTTCTTCTCTACCTAGCTCTCTCTTTCTCGCGGAGTCACCTAGTGCAG	21400 fluorescence intensity (a.u.)
ACTGCCCCTCCTAGCCAAAGCCACCTCATCCTCCTCTTCACGGAGTCACCTAGTGCAG	5730 fluorescence intensity (a.u.)
GATTGGCTGGAGGGCTCGCCGCCCGCGCCACGTGGGCTCCCGGAGTCACCTAGTGCAG	17500 fluorescence intensity (a.u.)
CACGGGCACACGCCATGTGAGGGGACATGAGGTGGGCACGCGGAGTCACCTAGTGCAG	3390 fluorescence intensity (a.u.)
GAGGCCCACCTGAAATTTCCACGCGCACGCGCTTTCCCGACGGAGTCACCTAGTGCAG	3370 fluorescence intensity (a.u.)
TCCCTCTCACGCCGCCGCCGCCTCGCCGCTTTCCTCTCTCCGGAGTCACCTAGTGCAG	3490 fluorescence intensity (a.u.)
ATACACACAGGCACACGTCCCACTCACTCGCTGCCTGCTCCGGAGTCACCTAGTGCAG	3610 fluorescence intensity (a.u.)
AAGTGGTTTCAGTGCTACGTGGCAATCCGGTCTACAATTCCGGAGTCACCTAGTGCAG	5900 fluorescence intensity (a.u.)
CAGGATGTGTATTTCGATTCTTACACGTAATGTATATAAACGGAGTCACCTAGTGCAG	3280 fluorescence intensity (a.u.)
GTCGTAATAAATATGTTATGGGACGAAAGAGTATCTATTACGGAGTCACCTAGTGCAG	37700 fluorescence intensity (a.u.)
CACGCACACCAACTGCTCGCTGCTTATATAGCCTCAGGTCCGGAGTCACCTAGTGCAG	22400 fluorescence intensity (a.u.)
ATGTACACACTGATCCAACTAGTTTCACTTACATGTCACTCGGAGTCACCTAGTGCAG	3340 fluorescence intensity (a.u.)
TTTATTTCTACCGCCACGTAGGTGCCATGTCAATGTCACGCGGAGTCACCTAGTGCAG	14300 fluorescence intensity (a.u.)
GGAGGCCTGGTGCACGTTGAGGGTGAAGGATGGGCAGCGCCGGAGTCACCTAGTGCAG	3680 fluorescence intensity (a.u.)
GTGGCCTCTCACTTGAATGATGATCCACCTCATGAGAAGGCGGAGTCACCTAGTGCAG	4070 fluorescence intensity (a.u.)
ATTAGTTTTATTAAATCTTACATTGAATATATTTTGATAACGGAGTCACCTAGTGCAG	3390 fluorescence intensity (a.u.)
GCGGCGCCACGGCGACTATTCAGATCGACTCGACTCGACCCGGAGTCACCTAGTGCAG	3530 fluorescence intensity (a.u.)

An excerpt of these results, in markdown.

| Sequence | binding signal |
| --- | --- |
| CCACCCACCACTTCTTCTCTACCTAGCTCTCTCTTTCTCGCGGAGTCACCTAGTGCAG | 21400 fluorescence intensity (a.u.) |
| CACGGGCACACGCCATGTGAGGGGACATGAGGTGGGCACGCGGAGTCACCTAGTGCAG | 3390 fluorescence intensity (a.u.) |
| CAGGATGTGTATTTCGATTCTTACACGTAATGTATATAAACGGAGTCACCTAGTGCAG | 3280 fluorescence intensity (a.u.) |
| ATGTACACACTGATCCAACTAGTTTCACTTACATGTCACTCGGAGTCACCTAGTGCAG | 3340 fluorescence intensity (a.u.) |
